# Measured values: patent US20240245793A1, “PSD-95 INHIBITORS AND USES THEREOF” (priority 2021, published 2024)
# The chains behind the UniProt entries cited, without tags or fusion partners. Residues count along the entry.
# UniProt P78352, residues 61-249: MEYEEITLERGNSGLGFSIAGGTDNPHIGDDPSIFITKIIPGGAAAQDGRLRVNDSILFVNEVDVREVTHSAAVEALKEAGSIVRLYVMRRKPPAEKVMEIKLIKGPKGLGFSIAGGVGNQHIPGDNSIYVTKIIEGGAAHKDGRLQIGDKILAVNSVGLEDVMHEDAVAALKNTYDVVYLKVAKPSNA
# These are yes or no findings as the source states them, for the method shown. Some entries that bind do so weakly or less than the wild type.
# Biological target: PDZ1-2 of PSD-95 (postsynaptic density protein-95) (UniProt P78352)
# Assay: FP competition assay
row,binding,Binder
1,binds,"KETRV (N-terminus joined to the OPEG4 linker that bridges the two copies) [compound 5, OPEG4-(KETRV)2]"
2,binds,"VETVV (N-terminus joined to the OPEG4 linker that bridges the two copies) [compound 7, OPEG4-(VETVV)2]"
3,binds,"ISTDV (N-terminus joined to the OPEG4 linker that bridges the two copies) [compound 6, OPEG4-(ISTDV)2]"
4,binds,"KETVV (N-terminus joined to the OPEG4 linker that bridges the two copies) [compound 4, OPEG4-(KETVV)2]"
